Measured values taken from article PMC6744489.
These are yes or no findings as the source states them, for the method shown. Binding seen in cells or lysates may run through a third protein.

Target: heterogeneous nuclear ribonucleoprotein K (HNRNPK) (human (endogenous in primary human keratinocytes)), P61978
Assay: co-IP; endogenous proteins; cells lysed in non-denaturing IP buffer (25 mM Tris-HCl pH 7.4, 150 mM NaCl, 1 mM EDTA, 1% NP-40, 5% glycerol); 3 ug antibody (HNRNPK, DDX6, RNA Pol II, CDK9 or rabbit IgG) on Protein G Dynabeads, lysate overnight at 4 °C, 6 washes, Western blot; for HNRNPK with DDX6 and with RNA Pol II the washed precipitates were split and treated +/- 100 ug/mL RNase A for 1.5 h on ice
Settings: remark: other sources report otherwise

B1: transcription termination factor, XRN2, Q9H0D6 1-950 (protein)
chain: MGVPAFFRWLSRKYPSIIVNCVEEKPKECNGVKIPVDASKPNPNDVEFDNLYLDMNGIIHPCTHPEDKPAPKNEDEMMVAIFEYIDRLFSIVRPRRLLYMAIDGVAPRAKMNQQRSRRFRASKEGMEAAVEKQRVREEILAKGGFLPPEEIKERFDSNCITPGTEFMDNLAKCLRYYIADRLNNDPGWKNLTVILSDASAPGEGEHKIMDYIRRQRAQPNHDPNTHHCLCGADADLIMLGLATHEPNFTIIREEFKPNKPKPCGLCNQFGHEVKDCEGLPREKKGKHDELADSLPCAEGEFIFLRLNVLREYLERELTMASLPFTFDVERSIDDWVFMCFFVGNDFLPHLPSLEIRENAIDRLVNIYKNVVHKTGGYLTESGYVNLQRVQMIMLAVGEVEDSIFKKRKDDEDSFRRRQKEKRKRMKRDQPAFTPSGILTPHALGSRNSPGSQVASNPRQAAYEMRMQNNSSPSISPNTSFTSDGSPSPLGGIKRKAEDSDSEPEPEDNVRLWEAGWKQRYYKNKFDVDAADEKFRRKVVQSYVEGLCWVLRYYYQGCASWKWYYPFHYAPFASDFEGIADMPSDFEKGTKPFKPLEQLMGVFPAASGNFLPPSWRKLMSDPDSSIIDFYPEDFAIDLNGKKYAWQGVALLPFVDERRLRAALEEVYPDLTPEETRRNSLGGDVLFVGKHHPLHDFILELYQTGSTEPVEVPPELCHGIQGKFSLDEEAILPDQIVCSPVPMLRDLTQNTVVSINFKDPQFAEDYIFKAVMLPGARKPAAVLKPSDWEKSSNGRQWKPQLGFNRDRRPVHLDQAAFRTLGHVMPRGSGTGIYSNAAPPPVTYQGNLYRPLLRGQAQIPKLMSNMRPQDSWRGPPPLFQQQRFDRGVGAEPLLPWNRMLQTQNAAFQPNQYQMLAGPGGYPPRRDDRGGRQGYPREGRKYPLPPPSGRYNWN
B1 was tested, and the binding was “no binding”.
